These results are taken from the supplement of paper PMC8007513.

The other results are listed elsewhere or left out. Most values come without repeats; read them as rough.

For this assay, the system named is Saccharomyces cerevisiae BY4743. Nature of the assay: growth (OD600) with compound + IPBC relative to untreated control; higher = less growth inhibition. Particulars: compound concentration: 133 uM; IPBC concentration: 0.5 ug/ml; 20 h. How it is done: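 NMCCC compounds (133 uM) combined with IPBC (0.5 ug/ml) against Saccharomyces cerevisiae BY4743 in YPD, 96-well plates. Growth was read as OD600 at 20 h and expressed as % of the untreated control. Single pass.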
For the molecule `CN(CC1=C(C)ON=C1C)C/2=C(\Cl)C(=O)N(/N=C2)C3=CC=C(C=N3)C(F)(F)F` + CCCCNC(=O)OCC#CI [3-iodo-2-propynyl butylcarbamate (IPBC)], the growth was found to be 99.8%.
`CCN(CC)CCNC(=O)c1nn(C)c2c1CSc1ccccc1-2` + CCCCNC(=O)OCC#CI [3-iodo-2-propynyl butylcarbamate (IPBC)]: the growth came out at 106%.
For `Oc1nc2ccccc2nc1SCc1ccon1` + CCCCNC(=O)OCC#CI [3-iodo-2-propynyl butylcarbamate (IPBC)], the growth is 103%.
On to `O=C(CNC(=O)c1ccccc1)NN1S(=O)(=O)c2ccccc2S1(=O)=O` + CCCCNC(=O)OCC#CI [3-iodo-2-propynyl butylcarbamate (IPBC)], for which the growth turned out to be 103%.
Take `COc1ccccc1CCNC(=O)CSc1nnnn1Cc1ccccc1` + CCCCNC(=O)OCC#CI [3-iodo-2-propynyl butylcarbamate (IPBC)]: the growth is 112%.
For `Cc1cccc(NC(=O)CCSc2nc3nc(C)ccc3o2)c1` + CCCCNC(=O)OCC#CI [3-iodo-2-propynyl butylcarbamate (IPBC)], the growth came to 98.5%.
With `Cc1cccc(N2CCN(S(=O)(=O)c3cc(Br)cnc3N)CC2)c1C` + CCCCNC(=O)OCC#CI [3-iodo-2-propynyl butylcarbamate (IPBC)] the figure was 89%; with `CC/1=C/C(=O)N(/C=N1)C(NC(=O)C2=CC=CC=C2)C(=O)C3=CC=CC=C3` (configuration not stated) + CCCCNC(=O)OCC#CI [3-iodo-2-propynyl butylcarbamate (IPBC)], 85.7%.
On to `Cc1ccn(CCC(=O)NC(C)Cc2ccco2)n1` (configuration not stated) + CCCCNC(=O)OCC#CI [3-iodo-2-propynyl butylcarbamate (IPBC)], for which the growth came out at 95.5%.
For the molecule `CCCN(CC(=O)NC1=CC=CC=C1OC)C(=O)\C2=C\OCCO2` + CCCCNC(=O)OCC#CI [3-iodo-2-propynyl butylcarbamate (IPBC)], the growth turned out to be 97%.
In the case of `CCOC(=O)c1cc(S(=O)(=O)N(C)CC(=O)Nc2cccc(C)n2)cn1C` + CCCCNC(=O)OCC#CI [3-iodo-2-propynyl butylcarbamate (IPBC)], the growth came to 110%.
In the case of `CN(C)CCN(Cc1ccccc1)C(=O)Cn1c(=O)oc2ccccc21` + CCCCNC(=O)OCC#CI [3-iodo-2-propynyl butylcarbamate (IPBC)], the growth is 76.5%.
Consider `CN(CC(=O)Nc1cccc(Cl)c1)S(=O)(=O)c1ccc(-c2ccc(O)nn2)s1` + CCCCNC(=O)OCC#CI [3-iodo-2-propynyl butylcarbamate (IPBC)], for which the growth stood at 96%.
In the case of `CCCNC(=O)CN1CCN(C(=O)CCCc2nc3ccccc3s2)CC1` + CCCCNC(=O)OCC#CI [3-iodo-2-propynyl butylcarbamate (IPBC)], the growth is 91%.
Turning to `Cc1nnc(SC(C)C(=O)c2c[nH]c3ccccc23)s1` (configuration not stated) + CCCCNC(=O)OCC#CI [3-iodo-2-propynyl butylcarbamate (IPBC)], the growth is 88.5%.
Turning to `Cc1nc(Nc2ccc(F)cc2Cl)c2cc(C)sc2n1` + CCCCNC(=O)OCC#CI [3-iodo-2-propynyl butylcarbamate (IPBC)], the growth came out at 86.9%.
The value for `COC1=CC=C(NC(=O)CN2\C(=N/C3=C(C(=NO3)C)C2=O)C)C=C1OC` + CCCCNC(=O)OCC#CI [3-iodo-2-propynyl butylcarbamate (IPBC)] was 98.2%; that for `N#Cc1cccnc1NCc1ccc(Cn2cncn2)cc1` + CCCCNC(=O)OCC#CI [3-iodo-2-propynyl butylcarbamate (IPBC)] was 92.8%.
Turning to `COC(=O)C(CC(C)C)NC(=O)c1ccc(S(=O)(=O)N2CCc3ccccc3C2)cc1` (configuration not stated) + CCCCNC(=O)OCC#CI [3-iodo-2-propynyl butylcarbamate (IPBC)], the growth was determined as 99.5%.
Regarding `CCn1nc(C)c(CNS(=O)(=O)c2ccc(C)cc2C)c1C` + CCCCNC(=O)OCC#CI [3-iodo-2-propynyl butylcarbamate (IPBC)], the growth was 94.2%.
With `COc1ccc(C(=O)Nc2ccc(OC)c(Cl)c2)c(OC)n1` + CCCCNC(=O)OCC#CI [3-iodo-2-propynyl butylcarbamate (IPBC)] the figure was 84.4%; with `CC1=CC=C(C)C(=C1)[S](=O)(=O)N(CC2=CC=CC=C2)C\3C[S](=O)(=O)\C=C3` (configuration not stated) + CCCCNC(=O)OCC#CI [3-iodo-2-propynyl butylcarbamate (IPBC)], 89.1%.
